# Results taken from article PMC9537944, “eIF4G1 N-terminal intrinsically disordered domain is a multi-docking station for RNA, Pab1, Pub1, and self-assembly” (Frontiers in Molecular Biosciences, 2022).
# Chains of the proteins cited; added tags and fusions are not shown. Lines headed by an entry give the natural chain unless they say otherwise; changes in a name come on top.
# UniProt P39935: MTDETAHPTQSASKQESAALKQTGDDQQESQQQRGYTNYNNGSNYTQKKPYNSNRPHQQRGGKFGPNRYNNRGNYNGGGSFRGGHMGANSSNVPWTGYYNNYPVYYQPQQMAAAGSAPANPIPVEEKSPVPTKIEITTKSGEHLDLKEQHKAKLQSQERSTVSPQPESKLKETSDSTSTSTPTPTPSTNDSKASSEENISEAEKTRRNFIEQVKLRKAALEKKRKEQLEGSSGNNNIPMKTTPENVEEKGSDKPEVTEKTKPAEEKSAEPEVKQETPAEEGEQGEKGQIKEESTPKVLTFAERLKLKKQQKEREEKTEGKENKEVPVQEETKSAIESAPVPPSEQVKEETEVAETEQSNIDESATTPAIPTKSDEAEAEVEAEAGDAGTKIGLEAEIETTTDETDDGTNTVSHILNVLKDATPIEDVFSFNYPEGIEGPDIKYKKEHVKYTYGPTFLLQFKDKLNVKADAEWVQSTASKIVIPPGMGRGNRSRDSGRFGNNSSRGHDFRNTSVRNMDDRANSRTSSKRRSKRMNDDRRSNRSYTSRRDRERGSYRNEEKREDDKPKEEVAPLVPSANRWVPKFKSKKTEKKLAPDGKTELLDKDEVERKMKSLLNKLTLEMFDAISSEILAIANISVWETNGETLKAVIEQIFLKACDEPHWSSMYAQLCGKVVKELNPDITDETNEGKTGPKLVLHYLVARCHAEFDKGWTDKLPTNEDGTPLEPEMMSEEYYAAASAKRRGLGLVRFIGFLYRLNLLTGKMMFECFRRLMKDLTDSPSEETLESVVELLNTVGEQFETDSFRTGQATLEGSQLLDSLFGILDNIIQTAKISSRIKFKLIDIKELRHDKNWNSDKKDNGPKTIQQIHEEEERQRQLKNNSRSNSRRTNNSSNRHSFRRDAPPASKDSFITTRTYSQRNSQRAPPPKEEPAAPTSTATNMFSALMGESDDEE
# Results are given in words; binding and its absence hold for the method and conditions named. Binding can be weak; no strength is given. Sequences can lack the tags named with a protein.
# Target: T1, Pub1 RRM3 (Saccharomyces cerevisiae) (UniProt P32588)
# T1 sequence: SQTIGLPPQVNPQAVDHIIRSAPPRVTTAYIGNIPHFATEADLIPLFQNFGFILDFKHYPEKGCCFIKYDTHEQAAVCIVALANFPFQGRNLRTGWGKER
# Assay: NMR titration; 1H-15N HSQC of 15N-labelled Pub1 RRM3 titrated with eIF4G1 peptides, eIF4G1 constructs and mutants, or Pab1 RRM12; NMR buffer (25 mM potassium phosphate pH 6.5, 25 or 150 mM NaCl, 1 mM DTT, 10% D2O), 25°C; both purified
row,Substance,binding
1,eIF4G1_(1-184) ΔBOX2 (from UniProt P39935) (domain or fragment),binds
2,eIF4G1_(1-184) ΔBOX1 (from UniProt P39935) (domain or fragment),binds weakly
